The text below walks through data of the supplement of paper PMC10060354, “Discovery of a small molecule ligand of FRS2 that inhibits invasion and tumor growth” (Cellular Oncology, 2022).

The chains behind the UniProt entries cited, without tags or fusion partners. Where a name states a change or a piece, a line headed by the entry shows the natural chain unless it says otherwise.
UniProt Q9UBW8: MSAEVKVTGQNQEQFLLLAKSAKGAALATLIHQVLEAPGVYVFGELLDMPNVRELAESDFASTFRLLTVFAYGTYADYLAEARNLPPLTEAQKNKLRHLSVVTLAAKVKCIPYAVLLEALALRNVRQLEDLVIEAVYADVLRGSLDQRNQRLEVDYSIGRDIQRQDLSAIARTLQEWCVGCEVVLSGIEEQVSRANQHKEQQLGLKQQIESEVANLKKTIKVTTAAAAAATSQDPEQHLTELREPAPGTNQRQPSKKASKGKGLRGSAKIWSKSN
UniProt P61619, whole entry: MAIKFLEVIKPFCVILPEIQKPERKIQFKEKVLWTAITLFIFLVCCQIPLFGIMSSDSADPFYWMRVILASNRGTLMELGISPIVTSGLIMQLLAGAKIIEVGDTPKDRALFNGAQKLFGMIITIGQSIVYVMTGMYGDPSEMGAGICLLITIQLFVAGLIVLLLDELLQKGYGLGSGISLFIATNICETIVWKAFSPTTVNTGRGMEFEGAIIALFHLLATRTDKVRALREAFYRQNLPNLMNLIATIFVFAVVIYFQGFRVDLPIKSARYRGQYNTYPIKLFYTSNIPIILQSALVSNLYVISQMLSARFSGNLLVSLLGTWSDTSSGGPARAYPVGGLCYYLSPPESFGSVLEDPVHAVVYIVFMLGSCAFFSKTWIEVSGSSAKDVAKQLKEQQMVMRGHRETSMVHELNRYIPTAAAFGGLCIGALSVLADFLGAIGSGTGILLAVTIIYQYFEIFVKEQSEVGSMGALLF
UniProt Q9BV57: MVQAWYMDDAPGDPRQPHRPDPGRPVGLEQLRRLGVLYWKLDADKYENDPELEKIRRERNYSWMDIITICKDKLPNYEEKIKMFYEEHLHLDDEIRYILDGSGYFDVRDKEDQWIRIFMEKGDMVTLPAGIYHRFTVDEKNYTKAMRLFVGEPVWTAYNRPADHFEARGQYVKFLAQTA
UniProt Q9Y421: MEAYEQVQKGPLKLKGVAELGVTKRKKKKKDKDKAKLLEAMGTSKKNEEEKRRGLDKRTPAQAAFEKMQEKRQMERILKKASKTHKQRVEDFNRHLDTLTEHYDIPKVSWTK
UniProt Q10472: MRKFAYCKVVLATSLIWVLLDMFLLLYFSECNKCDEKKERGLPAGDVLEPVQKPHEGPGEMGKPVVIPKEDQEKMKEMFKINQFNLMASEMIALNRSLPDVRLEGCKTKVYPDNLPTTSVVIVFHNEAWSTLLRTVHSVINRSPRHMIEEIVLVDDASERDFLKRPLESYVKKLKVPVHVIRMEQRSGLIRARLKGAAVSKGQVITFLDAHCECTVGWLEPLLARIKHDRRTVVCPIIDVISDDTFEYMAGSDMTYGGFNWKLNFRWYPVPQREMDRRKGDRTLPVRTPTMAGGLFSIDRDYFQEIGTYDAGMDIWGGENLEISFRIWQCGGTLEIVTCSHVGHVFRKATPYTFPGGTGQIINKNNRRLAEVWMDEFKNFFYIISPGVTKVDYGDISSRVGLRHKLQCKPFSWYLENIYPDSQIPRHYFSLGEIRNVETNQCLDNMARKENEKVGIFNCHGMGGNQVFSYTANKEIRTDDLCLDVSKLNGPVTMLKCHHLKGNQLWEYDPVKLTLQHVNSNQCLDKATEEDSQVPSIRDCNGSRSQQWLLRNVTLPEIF
UniProt O95772: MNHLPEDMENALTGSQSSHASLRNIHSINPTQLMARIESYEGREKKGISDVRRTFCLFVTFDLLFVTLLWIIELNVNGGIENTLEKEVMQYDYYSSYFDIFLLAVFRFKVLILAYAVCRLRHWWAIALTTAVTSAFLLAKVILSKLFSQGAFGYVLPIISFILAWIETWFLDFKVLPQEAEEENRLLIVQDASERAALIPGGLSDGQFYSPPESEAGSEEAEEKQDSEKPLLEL
UniProt Q86XF0: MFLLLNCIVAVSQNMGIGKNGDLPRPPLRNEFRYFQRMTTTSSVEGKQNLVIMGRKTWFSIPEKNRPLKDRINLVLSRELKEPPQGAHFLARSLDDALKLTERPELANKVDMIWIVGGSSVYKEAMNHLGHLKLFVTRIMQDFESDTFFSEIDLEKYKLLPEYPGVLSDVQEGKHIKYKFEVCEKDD
UniProt Q9Y6G9, whole entry: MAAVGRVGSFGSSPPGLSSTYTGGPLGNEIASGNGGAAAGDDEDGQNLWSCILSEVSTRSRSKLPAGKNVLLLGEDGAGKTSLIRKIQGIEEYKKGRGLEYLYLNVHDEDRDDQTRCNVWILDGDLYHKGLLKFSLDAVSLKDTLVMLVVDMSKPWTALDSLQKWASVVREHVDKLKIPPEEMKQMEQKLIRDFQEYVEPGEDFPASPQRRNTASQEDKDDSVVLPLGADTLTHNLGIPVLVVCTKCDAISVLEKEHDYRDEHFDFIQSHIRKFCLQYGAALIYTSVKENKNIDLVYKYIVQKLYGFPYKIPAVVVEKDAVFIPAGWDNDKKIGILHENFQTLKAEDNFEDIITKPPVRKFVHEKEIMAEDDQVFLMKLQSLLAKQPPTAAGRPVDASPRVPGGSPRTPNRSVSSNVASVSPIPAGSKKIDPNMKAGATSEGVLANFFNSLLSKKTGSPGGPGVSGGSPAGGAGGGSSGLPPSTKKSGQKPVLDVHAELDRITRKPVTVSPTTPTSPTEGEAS
UniProt Q13561, whole entry: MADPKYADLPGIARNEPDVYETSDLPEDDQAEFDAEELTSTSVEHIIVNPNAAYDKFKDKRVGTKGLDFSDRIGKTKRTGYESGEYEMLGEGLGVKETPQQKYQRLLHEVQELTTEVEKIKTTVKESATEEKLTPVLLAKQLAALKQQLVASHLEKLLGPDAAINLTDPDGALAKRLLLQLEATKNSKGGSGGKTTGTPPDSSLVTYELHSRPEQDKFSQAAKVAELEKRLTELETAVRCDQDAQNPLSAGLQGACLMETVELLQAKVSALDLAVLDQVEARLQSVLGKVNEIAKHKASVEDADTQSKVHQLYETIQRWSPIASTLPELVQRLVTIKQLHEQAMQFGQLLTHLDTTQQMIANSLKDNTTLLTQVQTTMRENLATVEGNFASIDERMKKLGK
UniProt Q9HAT2: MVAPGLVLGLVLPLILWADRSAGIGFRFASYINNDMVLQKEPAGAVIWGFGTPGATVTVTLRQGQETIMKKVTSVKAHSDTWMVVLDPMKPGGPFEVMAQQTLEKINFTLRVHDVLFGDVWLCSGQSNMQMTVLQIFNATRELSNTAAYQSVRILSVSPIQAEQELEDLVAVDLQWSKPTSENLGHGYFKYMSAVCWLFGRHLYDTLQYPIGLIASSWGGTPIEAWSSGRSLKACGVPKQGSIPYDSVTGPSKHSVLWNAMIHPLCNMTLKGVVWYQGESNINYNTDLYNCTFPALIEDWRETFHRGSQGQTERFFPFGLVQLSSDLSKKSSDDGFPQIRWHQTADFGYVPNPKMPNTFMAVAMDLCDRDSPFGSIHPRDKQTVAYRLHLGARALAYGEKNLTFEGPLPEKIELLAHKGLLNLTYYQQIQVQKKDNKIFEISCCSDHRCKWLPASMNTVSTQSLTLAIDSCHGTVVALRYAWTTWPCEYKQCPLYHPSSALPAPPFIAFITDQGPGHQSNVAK
UniProt Q9NVH1: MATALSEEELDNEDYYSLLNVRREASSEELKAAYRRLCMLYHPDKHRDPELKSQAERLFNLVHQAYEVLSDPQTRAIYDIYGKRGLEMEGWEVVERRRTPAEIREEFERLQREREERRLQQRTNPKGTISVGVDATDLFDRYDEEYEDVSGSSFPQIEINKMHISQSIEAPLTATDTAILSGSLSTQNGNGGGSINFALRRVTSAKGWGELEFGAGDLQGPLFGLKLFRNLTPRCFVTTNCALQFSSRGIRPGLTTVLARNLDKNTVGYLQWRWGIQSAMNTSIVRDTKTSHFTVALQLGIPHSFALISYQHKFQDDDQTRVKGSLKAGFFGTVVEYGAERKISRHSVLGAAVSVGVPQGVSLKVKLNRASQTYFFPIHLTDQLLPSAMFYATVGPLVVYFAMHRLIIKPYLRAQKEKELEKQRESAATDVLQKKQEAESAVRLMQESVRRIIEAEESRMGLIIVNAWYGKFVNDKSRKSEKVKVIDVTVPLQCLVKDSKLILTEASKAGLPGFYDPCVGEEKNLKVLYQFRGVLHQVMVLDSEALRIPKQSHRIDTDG
UniProt P78560: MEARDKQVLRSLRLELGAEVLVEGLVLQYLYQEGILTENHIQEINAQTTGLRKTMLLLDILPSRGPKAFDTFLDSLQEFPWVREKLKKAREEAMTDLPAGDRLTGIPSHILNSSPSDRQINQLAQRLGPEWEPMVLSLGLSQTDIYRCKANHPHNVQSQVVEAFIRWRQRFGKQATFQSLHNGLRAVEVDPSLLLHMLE
UniProt Q6NW29: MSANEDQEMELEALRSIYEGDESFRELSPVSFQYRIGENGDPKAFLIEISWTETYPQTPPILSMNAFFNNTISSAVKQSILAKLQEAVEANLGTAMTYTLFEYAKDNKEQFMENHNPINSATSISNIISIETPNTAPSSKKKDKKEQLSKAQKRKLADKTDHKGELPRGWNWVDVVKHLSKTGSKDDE
UniProt P67936, whole entry: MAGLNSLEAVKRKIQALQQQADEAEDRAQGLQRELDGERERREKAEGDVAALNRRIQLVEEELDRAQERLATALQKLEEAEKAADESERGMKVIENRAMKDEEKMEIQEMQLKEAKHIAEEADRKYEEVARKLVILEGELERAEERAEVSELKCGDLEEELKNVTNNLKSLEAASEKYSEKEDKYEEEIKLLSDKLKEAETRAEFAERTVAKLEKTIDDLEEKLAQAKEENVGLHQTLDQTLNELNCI
UniProt Q96CW6: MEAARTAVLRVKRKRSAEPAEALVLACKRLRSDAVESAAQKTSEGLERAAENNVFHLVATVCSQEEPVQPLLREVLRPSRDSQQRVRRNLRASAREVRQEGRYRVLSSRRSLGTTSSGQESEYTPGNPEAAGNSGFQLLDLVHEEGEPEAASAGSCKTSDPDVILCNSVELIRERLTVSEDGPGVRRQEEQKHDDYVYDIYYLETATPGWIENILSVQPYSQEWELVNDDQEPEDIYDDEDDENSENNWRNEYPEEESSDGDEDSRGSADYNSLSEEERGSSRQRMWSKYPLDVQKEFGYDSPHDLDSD
UniProt P06331, whole entry: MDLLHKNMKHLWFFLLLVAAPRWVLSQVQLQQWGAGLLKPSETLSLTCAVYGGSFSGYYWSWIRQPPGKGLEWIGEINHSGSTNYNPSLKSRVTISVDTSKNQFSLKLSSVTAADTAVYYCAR
UniProt Q14562: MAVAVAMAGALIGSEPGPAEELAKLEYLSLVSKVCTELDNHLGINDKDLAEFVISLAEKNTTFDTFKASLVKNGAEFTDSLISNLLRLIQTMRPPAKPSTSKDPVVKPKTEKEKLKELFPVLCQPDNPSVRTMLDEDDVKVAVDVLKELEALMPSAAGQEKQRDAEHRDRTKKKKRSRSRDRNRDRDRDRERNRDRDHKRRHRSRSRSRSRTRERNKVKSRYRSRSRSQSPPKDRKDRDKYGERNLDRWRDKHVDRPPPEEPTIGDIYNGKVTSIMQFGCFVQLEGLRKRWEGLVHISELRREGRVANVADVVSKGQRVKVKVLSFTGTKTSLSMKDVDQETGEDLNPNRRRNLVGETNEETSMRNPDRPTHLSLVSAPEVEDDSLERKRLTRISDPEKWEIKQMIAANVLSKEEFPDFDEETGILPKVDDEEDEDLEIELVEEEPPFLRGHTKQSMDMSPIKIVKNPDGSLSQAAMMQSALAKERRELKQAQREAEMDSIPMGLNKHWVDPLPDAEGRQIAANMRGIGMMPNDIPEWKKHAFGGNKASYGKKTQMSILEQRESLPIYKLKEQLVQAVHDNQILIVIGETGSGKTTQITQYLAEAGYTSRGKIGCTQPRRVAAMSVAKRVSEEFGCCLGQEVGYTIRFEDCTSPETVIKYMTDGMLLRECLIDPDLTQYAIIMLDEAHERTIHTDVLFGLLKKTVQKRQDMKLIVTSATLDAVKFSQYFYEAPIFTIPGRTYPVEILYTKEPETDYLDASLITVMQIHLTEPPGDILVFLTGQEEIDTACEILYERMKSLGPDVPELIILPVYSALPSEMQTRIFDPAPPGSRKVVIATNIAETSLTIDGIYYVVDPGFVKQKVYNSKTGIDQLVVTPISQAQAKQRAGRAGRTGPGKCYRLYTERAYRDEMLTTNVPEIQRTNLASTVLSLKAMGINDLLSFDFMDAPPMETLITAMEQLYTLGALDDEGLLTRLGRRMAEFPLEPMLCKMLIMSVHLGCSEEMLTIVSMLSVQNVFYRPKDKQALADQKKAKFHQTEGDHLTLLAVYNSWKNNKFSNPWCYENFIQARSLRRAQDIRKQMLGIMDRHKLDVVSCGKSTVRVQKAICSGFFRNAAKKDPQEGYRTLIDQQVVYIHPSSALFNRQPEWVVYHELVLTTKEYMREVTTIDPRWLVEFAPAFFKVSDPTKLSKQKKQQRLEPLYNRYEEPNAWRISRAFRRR
UniProt Q9ULZ3, whole entry: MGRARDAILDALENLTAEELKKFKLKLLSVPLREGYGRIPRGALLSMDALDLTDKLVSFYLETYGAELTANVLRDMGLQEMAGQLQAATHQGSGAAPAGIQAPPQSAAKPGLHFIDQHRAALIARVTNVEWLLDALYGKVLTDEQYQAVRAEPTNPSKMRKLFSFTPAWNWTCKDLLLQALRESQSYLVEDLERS

Repeats are few or missing, and single values can be far off.

Compound in this experiment: [O-][N+](C(C1=C(C(O)=C2)NC(C(C=C3)=CC=C3Cl)C4C1C=CC4)=C2Cl)=O
Kind of experiment: melting temperature shift (compound 7 minus DMSO); higher = compound stabilises the protein. The note with it: 10 µM. The procedure:
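Thermal proteome profiling (TMT mass spectrometry) in intact DAOY medulloblastoma cells or DAOY lysates treated with 10 µM compound 7 or DMSO, heated at 10 temperatures from 40.5 to 73.8 °C for 3 min. Melting curves were fitted with the Bioconductor TPP package, and the melting point difference between compound and vehicle is reported per protein (single curve per condition).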

Setting [1] is: system: DAOY cell lysate, treatment time: 20 min, 4 °C.
The mark [2] stands for this setting: system: intact DAOY cells, treatment time: 90 min, 37 °C.

As for AKAP8L (UniProt Q9ULX6), the melting temperature shift is -0.825 °C under setting [1] and -0.716 °C under setting [2].

As for UniProt P01009, the melting temperature shift is -0.0351 °C under setting [1] and 5.54 °C under setting [2].

Consider HSPH1 (UniProt Q92598), for which the melting temperature shift under setting [1] is -0.288 °C and the melting temperature shift under setting [2] was determined as 0.436 °C.

For UniProt Q9NYZ1, the melting temperature shift under setting [1] is 1.75 °C.

As for TBC1D15 (UniProt Q8TC07), the melting temperature shift under setting [1] is -0.506 °C and the melting temperature shift under setting [2] worked out at 0.199 °C.

For the target CEP55 (UniProt Q53EZ4), the melting temperature shift under setting [2] is 0.628 °C.

For AGMAT (UniProt Q9BSE5), the melting temperature shift runs as follows: under setting [1], -0.498 °C; under setting [2], -3.46 °C.

For the target UniProt P68133, the melting temperature shift under setting [1] was found to be 0.379 °C and the melting temperature shift under setting [2] was found to be 0.273 °C.

On to COPS7A (UniProt Q9UBW8), for which the melting temperature shift is -1 °C under setting [1] and 0.156 °C under setting [2].

With BOLA3 (UniProt Q53S33), the melting temperature shift under setting [1] is -1.62 °C and the melting temperature shift under setting [2] is -1.02 °C.

In the case of PUS7 (UniProt Q96PZ0), the melting temperature shift is, setting by setting: under setting [1], -0.396 °C; under setting [2], 0.817 °C.

Regarding SEC61A1 (UniProt P61619), the melting temperature shift is 1.18 °C under setting [1] and -1.49 °C under setting [2].

On to ADI1 (UniProt Q9BV57), for which the melting temperature shift is, setting by setting: under setting [1], -1.14 °C; under setting [2], 0.241 °C.

Turning to UniProt O15162, the melting temperature shift under setting [1] turned out to be 1.71 °C and the melting temperature shift under setting [2] is -1.58 °C.

In the case of UniProt Q9NPH0, the melting temperature shift under setting [1] is -3.51 °C.

Consider CCND1 (UniProt P24385), for which the melting temperature shift under setting [2] was -1.09 °C.

On to TYSND1 (UniProt Q2T9J0), for which, under setting [1], the melting temperature shift was -0.406 °C.

Turning to UniProt Q58EX7, the melting temperature shift under setting [1] is -0.183 °C.

Take IFT27 (UniProt Q9BW83): the melting temperature shift by setting is: under setting [1], -0.577 °C; under setting [2], -0.0996 °C.

As for FAM32A (UniProt Q9Y421), under setting [1], the melting temperature shift worked out at 1.04 °C.

Take UniProt Q8IX01: the melting temperature shift by setting is: under setting [1], 0.147 °C; under setting [2], 0.127 °C.

As to UniProt Q92913, under setting [1], the melting temperature shift is -0.63 °C.

Turning to NEDD4L (UniProt Q96PU5), the melting temperature shift is 0.253 °C under setting [1] and 0.972 °C under setting [2].

As to SPR (UniProt P35270), the melting temperature shift was -0.273 °C under setting [1] and -0.439 °C under setting [2].

Regarding SDF2L1 (UniProt Q9HCN8), the melting temperature shift under setting [2] is -0.59 °C.

Take UniProt Q9H2Y7: the melting temperature shift under setting [1] is -0.144 °C.

GALNT1 (UniProt Q10472): the melting temperature shift under setting [1] worked out at 2.7 °C.

For UniProt P05106, the melting temperature shift under setting [1] is -1.37 °C and the melting temperature shift under setting [2] is -0.909 °C.

On to UniProt O95772, for which the melting temperature shift under setting [1] came to 0.597 °C.

As for EXOC6B (UniProt Q9Y2D4), the melting temperature shift reads like this: under setting [1], -1.66 °C; under setting [2], -0.448 °C.

In the case of HMOX2 (UniProt P30519), the melting temperature shift runs as follows: under setting [1], 1.55 °C; under setting [2], -0.0368 °C.

Turning to UniProt Q8N4S0, the melting temperature shift under setting [1] worked out at 1.96 °C.

For the target UniProt Q86XF0, the melting temperature shift under setting [2] amounted to 0.111 °C.

For DYNC1LI1 (UniProt Q9Y6G9), the melting temperature shift reads like this: under setting [1], -0.883 °C; under setting [2], -0.351 °C.

As for NEK6 (UniProt Q9HC98), the melting temperature shift under setting [1] was -2.56 °C.

With DCTN2 (UniProt Q13561), the melting temperature shift was -0.773 °C under setting [1] and 0.919 °C under setting [2].

For SIAE (UniProt Q9HAT2), the melting temperature shift under setting [1] amounted to 1.95 °C.

On to MRPL1 (UniProt Q9BYD6), for which the melting temperature shift runs as follows: under setting [1], 0.583 °C; under setting [2], -0.591 °C.

For the target DTX2 (UniProt Q86UW9), the melting temperature shift under setting [2] was 1.28 °C.

In the case of ATG3 (UniProt Q9NT62), the melting temperature shift is -0.216 °C under setting [1] and -1 °C under setting [2].

Turning to DNAJC11 (UniProt Q9NVH1), the melting temperature shift is 0.93 °C under setting [1] and 0.136 °C under setting [2].

For DCTN3 (UniProt O75935), the melting temperature shift reads like this: under setting [1], -0.825 °C; under setting [2], 0.416 °C.

Take UBE3C (UniProt Q15386): the melting temperature shift runs as follows: under setting [1], 0.0483 °C; under setting [2], -0.51 °C.

RPL35 (UniProt P42766): the melting temperature shift was 0.515 °C under setting [1] and -0.855 °C under setting [2].

Turning to JAK1 (UniProt P23458), the melting temperature shift under setting [1] stood at 0.472 °C.

As for ATPAF2 (UniProt Q8N5M1), the melting temperature shift reads like this: under setting [1], -0.947 °C; under setting [2], -0.319 °C.

Take BCKDHB (UniProt P21953): the melting temperature shift under setting [1] was -0.362 °C.

For the target UniProt P78560, the melting temperature shift under setting [1] was found to be 1.16 °C.

As for COTL1 (UniProt Q14019), the melting temperature shift reads like this: under setting [1], -2.23 °C; under setting [2], -0.326 °C.

Take CLMP (UniProt Q9H6B4): the melting temperature shift under setting [2] amounted to 2.53 °C.

For ELAC2 (UniProt Q9BQ52), the melting temperature shift by setting is: under setting [1], 0.374 °C; under setting [2], -0.353 °C.

As to RWDD4 (UniProt Q6NW29), the melting temperature shift is, setting by setting: under setting [1], 0.0316 °C; under setting [2], -1.25 °C.

As for TPM4 (UniProt P67936), the melting temperature shift under setting [1] was -2.59 °C.

In the case of VPS26A (UniProt O75436), the melting temperature shift is -0.711 °C under setting [1] and 0.0509 °C under setting [2].

For the target GOPC (UniProt Q9HD26), the melting temperature shift was -0.777 °C under setting [1] and -0.469 °C under setting [2].

Take ADK (UniProt P55263): the melting temperature shift is, setting by setting: under setting [1], -0.546 °C; under setting [2], -1.73 °C.

With VPS53 (UniProt Q5VIR6), the melting temperature shift by setting is: under setting [1], -0.693 °C; under setting [2], -0.848 °C.

As for UniProt O14746, under setting [2], the melting temperature shift is -0.229 °C.

UniProt Q7Z6K5: the melting temperature shift under setting [1] was -1.11 °C and the melting temperature shift under setting [2] was determined as 0.563 °C.

Consider SLC7A6OS (UniProt Q96CW6), for which the melting temperature shift under setting [1] is -5.34 °C.

On to UniProt P06331, for which the melting temperature shift under setting [2] is -2.27 °C.

For PLEKHF2 (UniProt Q9H8W4), the melting temperature shift runs as follows: under setting [1], -0.927 °C; under setting [2], -0.331 °C.

In the case of NAPA (UniProt P54920), the melting temperature shift is 0.63 °C under setting [1] and 0.352 °C under setting [2].

In the case of WASF1 (UniProt Q92558), under setting [1], the melting temperature shift was -0.67 °C.

Take SLAIN2 (UniProt Q9P270): under setting [1], the melting temperature shift was -0.0602 °C.

With DHX8 (UniProt Q14562), the melting temperature shift under setting [1] worked out at 1.61 °C and the melting temperature shift under setting [2] was -1.63 °C.

Take UniProt Q9ULZ3: the melting temperature shift was -1.13 °C under setting [1] and 0.382 °C under setting [2].

Turning to NDRG3 (UniProt Q9UGV2), the melting temperature shift is -0.311 °C under setting [1] and 0.0708 °C under setting [2].

As for HEBP1 (UniProt Q9NRV9), the melting temperature shift is, setting by setting: under setting [1], -1.28 °C; under setting [2], 1.36 °C.

PCBP1 (UniProt Q15365): the melting temperature shift by setting is: under setting [1], -0.579 °C; under setting [2], -1.01 °C.
